Measurements: US20170050988A1, “DOTAM DERIVATIVES FOR THERAPEUTIC USE” (priority 2013, published 2017)
Some of these results come from one statement about several compounds together.

System: articular and growth plate cartilages of rat knee joints
Test: In vivo MRI investigation with healthy rats
Set-up: species or system Lewis rats
Conditions: intra-articular

AcYRLGRW-DOTA-[Gd3^+] [HHY-341Gd]
clearance from non-cartilage compartments of the joint (meniscus, synovium, fat tissues, muscles or bones): ≤ 4 h
